Assay results reported in paper PMC3946611, “hCLE/C14orf166 Associates with DDX1-HSPC117-FAM98B in a Novel Transcription-Dependent Shuttling RNA-Transporting Complex” (PLoS ONE, 2014).

The chains behind the UniProt entries cited, without tags or fusion partners.
UniProt Q9H1R3: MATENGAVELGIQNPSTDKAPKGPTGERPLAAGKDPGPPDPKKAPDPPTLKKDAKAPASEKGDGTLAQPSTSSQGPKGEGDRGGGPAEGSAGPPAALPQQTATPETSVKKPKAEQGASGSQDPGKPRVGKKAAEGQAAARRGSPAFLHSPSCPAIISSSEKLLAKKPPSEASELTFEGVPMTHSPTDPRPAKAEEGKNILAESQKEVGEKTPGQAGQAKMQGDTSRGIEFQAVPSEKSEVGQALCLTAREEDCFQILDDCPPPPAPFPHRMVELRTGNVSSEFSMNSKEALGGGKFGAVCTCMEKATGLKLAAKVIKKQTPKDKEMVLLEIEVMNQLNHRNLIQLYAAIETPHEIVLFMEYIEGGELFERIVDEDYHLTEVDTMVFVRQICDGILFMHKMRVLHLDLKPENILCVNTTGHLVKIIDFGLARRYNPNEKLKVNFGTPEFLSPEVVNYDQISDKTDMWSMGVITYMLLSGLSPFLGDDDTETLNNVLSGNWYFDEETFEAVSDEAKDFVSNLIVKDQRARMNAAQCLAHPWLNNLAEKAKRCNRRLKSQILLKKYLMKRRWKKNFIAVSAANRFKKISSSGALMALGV
UniProt Q9NRC6: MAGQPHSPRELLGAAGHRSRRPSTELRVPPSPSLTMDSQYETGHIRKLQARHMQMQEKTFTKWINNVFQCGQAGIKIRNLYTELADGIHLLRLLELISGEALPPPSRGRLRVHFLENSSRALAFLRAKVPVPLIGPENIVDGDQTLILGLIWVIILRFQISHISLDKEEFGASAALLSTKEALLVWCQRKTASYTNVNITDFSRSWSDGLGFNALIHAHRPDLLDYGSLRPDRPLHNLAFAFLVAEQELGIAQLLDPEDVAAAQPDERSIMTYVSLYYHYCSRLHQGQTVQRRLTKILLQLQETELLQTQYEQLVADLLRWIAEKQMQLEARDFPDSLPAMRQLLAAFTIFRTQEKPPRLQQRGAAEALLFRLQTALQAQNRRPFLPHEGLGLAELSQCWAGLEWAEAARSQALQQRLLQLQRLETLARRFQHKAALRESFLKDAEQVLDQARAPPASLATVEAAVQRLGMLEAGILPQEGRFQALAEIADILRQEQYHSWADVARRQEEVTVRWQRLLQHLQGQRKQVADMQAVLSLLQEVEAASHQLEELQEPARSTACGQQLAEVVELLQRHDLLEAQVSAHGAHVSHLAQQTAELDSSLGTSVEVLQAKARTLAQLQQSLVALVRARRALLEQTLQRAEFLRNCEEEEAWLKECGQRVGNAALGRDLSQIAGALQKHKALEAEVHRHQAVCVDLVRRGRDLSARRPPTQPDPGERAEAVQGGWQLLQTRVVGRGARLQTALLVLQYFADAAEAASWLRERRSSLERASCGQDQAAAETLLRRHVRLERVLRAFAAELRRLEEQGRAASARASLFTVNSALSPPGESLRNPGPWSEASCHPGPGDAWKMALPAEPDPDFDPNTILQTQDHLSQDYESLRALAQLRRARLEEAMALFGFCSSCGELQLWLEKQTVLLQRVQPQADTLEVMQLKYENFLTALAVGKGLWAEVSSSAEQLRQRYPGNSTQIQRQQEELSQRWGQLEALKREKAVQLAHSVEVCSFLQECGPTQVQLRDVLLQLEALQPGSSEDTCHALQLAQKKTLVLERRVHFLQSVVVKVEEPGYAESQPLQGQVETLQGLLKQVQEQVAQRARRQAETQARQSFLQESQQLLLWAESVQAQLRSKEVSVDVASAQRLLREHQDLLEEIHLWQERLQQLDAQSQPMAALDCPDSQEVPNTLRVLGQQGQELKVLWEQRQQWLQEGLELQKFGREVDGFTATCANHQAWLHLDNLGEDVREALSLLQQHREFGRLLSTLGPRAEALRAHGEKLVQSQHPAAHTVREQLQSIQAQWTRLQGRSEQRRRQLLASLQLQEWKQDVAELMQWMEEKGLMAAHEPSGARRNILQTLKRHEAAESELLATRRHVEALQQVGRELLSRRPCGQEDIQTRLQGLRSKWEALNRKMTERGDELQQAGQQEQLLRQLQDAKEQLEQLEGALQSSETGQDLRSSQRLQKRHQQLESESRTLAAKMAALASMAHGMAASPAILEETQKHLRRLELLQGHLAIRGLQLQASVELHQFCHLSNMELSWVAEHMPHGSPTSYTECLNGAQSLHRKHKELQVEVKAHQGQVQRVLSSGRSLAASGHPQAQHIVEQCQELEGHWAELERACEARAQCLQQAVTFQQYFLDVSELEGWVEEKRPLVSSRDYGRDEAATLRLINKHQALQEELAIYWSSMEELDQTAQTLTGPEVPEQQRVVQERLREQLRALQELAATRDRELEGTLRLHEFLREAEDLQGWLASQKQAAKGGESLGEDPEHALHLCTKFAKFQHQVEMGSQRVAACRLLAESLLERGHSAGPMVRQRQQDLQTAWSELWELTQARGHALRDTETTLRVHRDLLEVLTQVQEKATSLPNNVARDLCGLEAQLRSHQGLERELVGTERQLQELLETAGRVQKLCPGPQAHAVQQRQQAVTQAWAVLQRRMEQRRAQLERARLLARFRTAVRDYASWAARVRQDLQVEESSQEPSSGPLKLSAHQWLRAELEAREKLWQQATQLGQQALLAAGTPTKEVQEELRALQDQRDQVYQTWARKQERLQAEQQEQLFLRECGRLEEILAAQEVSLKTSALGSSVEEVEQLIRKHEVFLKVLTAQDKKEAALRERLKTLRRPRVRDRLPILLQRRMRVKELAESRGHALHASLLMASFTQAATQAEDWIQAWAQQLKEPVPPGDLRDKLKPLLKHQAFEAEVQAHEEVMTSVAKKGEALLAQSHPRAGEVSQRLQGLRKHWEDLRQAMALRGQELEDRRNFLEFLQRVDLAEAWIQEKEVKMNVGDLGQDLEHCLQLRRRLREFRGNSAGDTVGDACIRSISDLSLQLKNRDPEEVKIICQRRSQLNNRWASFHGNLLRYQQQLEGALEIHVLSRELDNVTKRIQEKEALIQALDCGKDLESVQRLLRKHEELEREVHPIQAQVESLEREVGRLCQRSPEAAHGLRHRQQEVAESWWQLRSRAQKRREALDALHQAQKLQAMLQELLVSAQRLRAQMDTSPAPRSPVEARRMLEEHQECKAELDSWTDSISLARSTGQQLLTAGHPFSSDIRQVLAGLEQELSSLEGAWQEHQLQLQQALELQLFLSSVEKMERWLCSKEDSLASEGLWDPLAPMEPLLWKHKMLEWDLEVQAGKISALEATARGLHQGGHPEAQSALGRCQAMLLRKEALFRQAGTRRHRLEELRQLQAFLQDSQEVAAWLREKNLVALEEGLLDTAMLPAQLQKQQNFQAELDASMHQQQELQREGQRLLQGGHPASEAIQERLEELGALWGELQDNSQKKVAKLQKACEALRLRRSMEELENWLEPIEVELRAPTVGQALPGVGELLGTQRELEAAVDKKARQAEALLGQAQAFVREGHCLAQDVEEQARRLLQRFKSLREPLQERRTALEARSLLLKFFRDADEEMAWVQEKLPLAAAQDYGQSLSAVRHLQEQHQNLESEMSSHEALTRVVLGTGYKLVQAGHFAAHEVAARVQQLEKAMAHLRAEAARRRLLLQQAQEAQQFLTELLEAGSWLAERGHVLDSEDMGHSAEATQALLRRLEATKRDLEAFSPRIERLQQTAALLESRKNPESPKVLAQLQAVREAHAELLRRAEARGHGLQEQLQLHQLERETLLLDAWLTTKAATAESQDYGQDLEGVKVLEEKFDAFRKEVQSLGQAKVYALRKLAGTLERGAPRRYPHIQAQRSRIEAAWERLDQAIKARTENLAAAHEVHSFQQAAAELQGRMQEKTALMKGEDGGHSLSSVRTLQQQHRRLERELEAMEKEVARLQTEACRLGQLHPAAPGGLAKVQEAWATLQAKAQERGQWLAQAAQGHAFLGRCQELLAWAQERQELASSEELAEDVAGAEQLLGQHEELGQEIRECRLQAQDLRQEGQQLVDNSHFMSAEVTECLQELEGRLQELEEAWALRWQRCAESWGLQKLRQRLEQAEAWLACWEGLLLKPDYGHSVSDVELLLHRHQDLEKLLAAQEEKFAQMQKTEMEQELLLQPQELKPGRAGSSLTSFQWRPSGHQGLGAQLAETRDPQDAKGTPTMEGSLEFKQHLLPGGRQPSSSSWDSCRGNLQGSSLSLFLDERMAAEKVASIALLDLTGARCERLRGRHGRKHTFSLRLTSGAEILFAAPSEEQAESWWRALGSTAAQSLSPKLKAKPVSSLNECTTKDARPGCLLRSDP

T1: hCLE-TAP tagged protein, purified as hCLE-CBD (human) (UniProt Q9Y224)
T1 sequence: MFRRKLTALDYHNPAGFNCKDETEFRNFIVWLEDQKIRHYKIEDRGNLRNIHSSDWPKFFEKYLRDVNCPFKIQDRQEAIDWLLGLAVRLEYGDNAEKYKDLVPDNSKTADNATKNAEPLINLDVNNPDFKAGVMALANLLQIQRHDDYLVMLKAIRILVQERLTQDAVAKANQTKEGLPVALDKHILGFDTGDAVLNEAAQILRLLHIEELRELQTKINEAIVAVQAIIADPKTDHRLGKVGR


Assays:
[1] = target: T1, hCLE-TAP tagged protein, purified as hCLE-CBD (human); assay: affinity purification with mass spectrometry; TAP purification of hCLE-TAP from cytosolic extracts of transfected HEK293T cells (150 mM NaCl); LC-MS/MS; TAP alone as control
[2] = target: T1, hCLE-TAP tagged protein, purified as hCLE-CBD (human); assay: affinity purification with mass spectrometry; TAP purification of hCLE-TAP from nuclear extracts of transfected HEK293T cells (150 mM NaCl, 10 mM Tris-HCl pH 8.0, 0.1% NP-40); LC-MS/MS; TAP alone as control

Molecule | binding [1] | binding [2]
Myosin light chain kinase 2, skeletal/cardiac muscle (from UniProt Q9H1R3 1-596) | binds | binds
Protein FAM98A (from UniProt Q8NCA5 1-518) | binds | binds
Spectrin beta chain, non-erythrocytic 5 (from UniProt Q9NRC6 1-3674) | binds | binds
Bystin (protein, UniProt Q13895 1-437) MPKFKAARGVGGQEKHAPLADQILAGNAVRAGVREKRRGRGTGEAEEEYVGPRLSRRILQQARQQQEELEAEHGTGDKPAAPRERTTRLGPRMPQDGSDDEDEEWPTLEKAATMTAAGHHAEVVVDPEDERAIEMFMNKNPPARRTLADIIMEKLTEKQTEVETVMSEVSGFPMPQLDPRVLEVYRGVREVLSKYRSGKLPKAFKIIPALSNWEQILYVTEPEAWTAAAMYQATRIFASNLKERMAQRFYNLVLLPRVRDDVAEYKRLNFHLYMALKKALFKPGAWFKGILIPLCESGTCTLREAIIVGSIITKCSIPVLHSSAAMLKIAEMEYSGANSIFLRLLLDKKYALPYRVLDALVFHFLGFRTEKRELPVLWHQCLLTLVQRYKADLATDQKEALLELLRLQPHPQLSPEIRRELQSAVPRDVEDVPITVE | binds | 
Syntaxin-18 (protein, UniProt Q9P2W9 1-335) MAVDITLLFRASVKTVKTRNKALGVAVGGGVDGSRDELFRRSPRPKGDFSSRAREVISHIGKLRDFLLEHRKDYINAYSHTMSEYGRMTDTERDQIDQDAQIFMRTCSEAIQQLRTEAHKEIHSQQVKEHRTAVLDFIEDYLKRVCKLYSEQRAIRVKRVVDKKRLSKLEPEPNTKTRESTSSEKVSQSPSKDSEENPATEERPEKILAETQPELGTWGDGKGEDELSPEEIQMFEQENQRLIGEMNSLFDEVRQIEGRVVEISRLQEIFTEKVLQQEAEIDSIHQLVVGATENIKEGNEDIREAIKNNAGFRVWILFFLVMCSFSLLFLDWYDS | binds | 
Rab11 family-interacting protein 5 (protein, UniProt Q9BXF6 1-653) MALVRGAEPAAGPSRWLPTHVQVTVLRARGLRGKSSGAGSTSDAYTVIQVGREKYSTSVVEKTHGCPEWREECSFELPPGALDGLLRAQEADAGPAPWAASSAAACELVLTTMHRSLIGVDKFLGQATVALDEVFGAGRAQHTQWYKLHSKPGKKEKERGEIEVTIQFTRNNLSASMFDLSMKDKPRSPFSKIRDKMKGKKKYDLESASAILPSSAIEDPDLGSLGKMGKAKGFFLRNKLRKSSLTQSNTSLGSDSTLSSASGSLAYQGPGAELLTRSPSRSSWLSTEGGRDSAQSPKLFTHKRTYSDEANQMRVAPPRALLDLQGHLDAASRSSLCVNGSHIYNEEPQGPVRHRSSISGSLPSSGSLQAVSSRFSEEGPRSTDDTWPRGSRSNSSSEAVLGQEELSAQAKVLAPGASHPGEEEGARLPEGKPVQVATPIVASSEAVAEKEGARKEERKPRMGLFHHHHQGLSRSELGRRSSLGEKGGPILGASPHHSSSGEEKAKSSWFGLREAKDPTQKPSPHPVKPLSAAPVEGSPDRKQSRSSLSIALSSGLEKLKTVTSGSIQPVTQAPQAGQMVDTKRLKDSAVLDQSAKYYHLTHDELISLLLQRERELSQRDEHVQELESYIDRLLVRIMETSPTLLQIPPGPPK | binds | 
ATP-binding cassette sub-family F member 2 (protein, UniProt Q9UG63 1-623) MPSDLAKKKAAKKKEAAKARQRPRKGHEENGDVVTEPQVAEKNEANGRETTEVDLLTKELEDFEMKKAAARAVTGVLASHPNSTDVHIINLSLTFHGQELLSDTKLELNSGRRYGLIGLNGIGKSMLLSAIGKREVPIPEHIDIYHLTREMPPSDKTPLHCVMEVDTERAMLEKEAERLAHEDAECEKLMELYERLEELDADKAEMRASRILHGLGFTPAMQRKKLKDFSGGWRMRVALARALFIRPFMLLLDEPTNHLDLDACVWLEEELKTFKRILVLVSHSQDFLNGVCTNIIHMHNKKLKYYTGNYDQYVKTRLELEENQMKRFHWEQDQIAHMKNYIARFGHGSAKLARQAQSKEKTLQKMMASGLTERVVSDKTLSFYFPPCGKIPPPVIMVQNVSFKYTKDGPCIYNNLEFGIDLDTRVALVGPNGAGKSTLLKLLTGELLPTDGMIRKHSHVKIGRYHQHLQEQLDLDLSPLEYMMKCYPEIKEKEEMRKIIGRYGLTGKQQVSPIRNLSDGQKCRVCLAWLAWQNPHMLFLDEPTNHLDIETIDALADAINEFEGGMMLVSHDFRLIQQVAQEIWVCEKQTITKWPGDILAYKEHLKSKLVDEEPQLTKRTHNV | binds | 
Fragile X mental retardation-interacting protein 2 (protein, UniProt Q7Z417 1-695) MEEKPGQPQPQHHHSHHHPHHHPQQQQQQPHHHHHYYFYNHSHNHHHHHHHQQPHQYLQHGAEGSPKAQPKPLKHEQKHTLQQHQETPKKKTGYGELNGNAGEREISLKNLSSDEATNPISRVLNGNQQVVDTSLKQTVKANTFGKAGIKTKNFIQKNSMDKKNGKSYENKSGENQSVDKSDTIPIPNGVVTNNSGYITNGYMGKGADNDGSGSESGYTTPKKRKARRNSAKGCENLNIVQDKIMQQETSVPTLKQGLETFKPDYSEQKGNRVDGSKPIWKYETGPGGTSRGKPAVGDMLRKSSDSKPGVSSKKFDDRPKGKHASAVASKEDSWTLFKPPPVFPVDNSSAKIVPKISYASKVKENLNKTIQNSSVSPTSSSSSSSSTGETQTQSSSRLSQVPMSALKSVTSANFSNGPVLAGTDGNVYPPGGQPLLTTAANTLTPISSGTDSVLQDMSLTSAAVEQIKTSLFIYPSNMQTMLLSTAQVDLPSQTDQQNLGDIFQNQWGLSFINEPSAGPETVTGKSSEHKVMEVTFQGEYPATLVSQGAEIIPSGTEHPVFPKAYELEKRTSPQVLGSILKSGTTSESGALSLEPSHIGDLQKADTSSQGALVFLSKDYEIESQNPLASPTNTLLGSAKEQRYQRGLERNDSWGSFDLRAAIVYHTKEMESIWNLQKQDPKRIITYNEAMDSPDQ | binds | 
Migration and invasion-inhibitory protein (protein, UniProt Q5JXC2 1-388) MVEAEELAQLRLLNLELLRQLWVGQDAVRRSVARAASESSLESSSSYNSETPSTPETSSTSLSTSCPRGRSSVWGPPDACRGDLRDVARSGVASLPPAKCQHQESLGRPRPHSAPSLGTSSLRDPEPSGRLGDPGPQEAQTPRSILAQQSKLSKPRVTFSEESAVPKRSWRLRPYLGYDWIAGSLDTSSSITSQPEAFFSKLQEFRETNKEECICSHPEPQLPGLRESSGSGVEEDHECVYCYRVNRRLFPVPVDPGTPCRLCRTPRDQQGPGTLAQPAHVRVSIPLSILEPPHRYHIHRRKSFDASDTLALPRHCLLGWDIFPPKSEKSSAPRNLDLWSSVSAEAQHQKLSGTSSPFHPASPMQMLPPTPTWSVPQVPRPHVPRQKP | binds | 

No constants are given. Whether binding was seen depends on the method and setting. Binding seen in cells or lysates may run through a third protein. A yes stands for co-enrichment or nearness to the bait. Other partners may have been found. Sequences can lack the tags named with a protein.
